No constants are given. Whether binding was seen depends on the method and setting. In cells and extracts the contact can be indirect. Some entries that bind do so weakly or less than the wild type.

Chains of the proteins cited; added tags and fusions are not shown. Lines headed by an entry give the natural chain unless they say otherwise; changes in a name come on top. A line that says so, or that is headed by a name, gives the form on record, which may keep a tag or linker.
UniProt Q03135: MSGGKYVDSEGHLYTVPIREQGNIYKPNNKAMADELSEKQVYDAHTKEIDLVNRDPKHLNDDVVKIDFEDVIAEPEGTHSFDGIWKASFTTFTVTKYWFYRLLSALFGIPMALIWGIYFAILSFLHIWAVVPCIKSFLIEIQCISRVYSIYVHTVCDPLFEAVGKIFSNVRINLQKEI
CAV1ΔSD-HA (Q03135, form named): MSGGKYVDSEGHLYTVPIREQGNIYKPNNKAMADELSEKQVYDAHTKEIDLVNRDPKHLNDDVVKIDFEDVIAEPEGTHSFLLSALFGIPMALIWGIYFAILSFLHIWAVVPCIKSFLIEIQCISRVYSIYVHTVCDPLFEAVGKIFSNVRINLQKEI
CAV1ΔIM-HA (Q03135, form named): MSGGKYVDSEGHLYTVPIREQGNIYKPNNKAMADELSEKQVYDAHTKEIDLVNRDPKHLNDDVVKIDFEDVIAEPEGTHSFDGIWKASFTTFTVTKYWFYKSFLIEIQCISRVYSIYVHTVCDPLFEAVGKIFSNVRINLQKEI
UniProt Q14457: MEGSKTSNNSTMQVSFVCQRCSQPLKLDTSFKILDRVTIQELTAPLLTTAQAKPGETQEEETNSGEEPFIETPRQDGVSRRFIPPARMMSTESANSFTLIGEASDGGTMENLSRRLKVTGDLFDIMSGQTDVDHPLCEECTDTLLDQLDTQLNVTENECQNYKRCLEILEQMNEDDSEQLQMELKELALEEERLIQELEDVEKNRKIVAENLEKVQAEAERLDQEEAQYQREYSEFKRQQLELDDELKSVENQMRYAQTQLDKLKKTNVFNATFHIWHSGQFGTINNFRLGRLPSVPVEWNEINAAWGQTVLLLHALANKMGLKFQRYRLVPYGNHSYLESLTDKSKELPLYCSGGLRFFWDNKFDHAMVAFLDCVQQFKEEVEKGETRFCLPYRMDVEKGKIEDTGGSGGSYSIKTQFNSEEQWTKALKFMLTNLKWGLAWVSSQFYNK
UniProt Q6ZNE5: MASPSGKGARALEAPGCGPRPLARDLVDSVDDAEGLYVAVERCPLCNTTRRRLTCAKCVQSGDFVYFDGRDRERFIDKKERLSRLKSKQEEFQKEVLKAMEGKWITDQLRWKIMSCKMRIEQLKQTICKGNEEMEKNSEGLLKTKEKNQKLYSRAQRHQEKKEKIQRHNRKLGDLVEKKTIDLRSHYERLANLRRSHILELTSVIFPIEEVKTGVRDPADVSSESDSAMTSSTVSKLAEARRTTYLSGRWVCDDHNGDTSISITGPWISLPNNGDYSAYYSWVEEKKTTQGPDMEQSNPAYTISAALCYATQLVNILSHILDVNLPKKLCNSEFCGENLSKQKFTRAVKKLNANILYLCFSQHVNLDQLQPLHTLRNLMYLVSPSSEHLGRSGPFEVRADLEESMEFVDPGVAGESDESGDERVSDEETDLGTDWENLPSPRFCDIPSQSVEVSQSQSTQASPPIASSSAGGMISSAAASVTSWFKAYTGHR

The target in one assay is CAV1-Y14D-HA (UniProt Q03135). Description: co-IP; HEK293T transfected 24 h; IP with anti-HA antibody (CAV1-HA variant as bait), western blot; lysis in modified RIPA (10 mM Tris-HCl, 150 mM NaCl, 5 mM EDTA, 1 mM Na3VO4, 1% CHAPS); cells untreated or treated with 1 mM H2O2 up to 30 min.
Assay [1] addresses HA-tagged CAV1 (Caveolin1), full length (UniProt Q03135). The assay is described as above.
The next assay has as its target BECN1-flag, full length (UniProt Q14457). Description: co-IP; HEK293T co-transfected 24 h; IP with anti-Flag antibody (BECN1-flag as bait), western blot; lysis in modified RIPA.
Assay [2] addresses HA-tagged CAV1 (Caveolin1), full length (UniProt Q03135). The assay can be described thus: co-IP; IP assay of CAV1-HA with ATG14-flag or UVRAG-flag (Supplementary Figure S3a and b); cells and precipitating antibody not shown.

For “BECN1 (in HEK293T lysate, Figure 5c) (from UniProt Q14457 1-450)”, the binding entry with CAV1-Y14D-HA was “binds”.
Take “BECN1-flag, full length (from UniProt Q14457 1-450)”: the binding entry in assay [1] was “binds”.
Take “HA-tagged CAV1 (Caveolin1), full length (from UniProt Q03135 1-178)”: the binding result with BECN1-flag, full length is on record as “binds”.
With “BECN1 (transfected, Figure 3a; no tag named) (from UniProt Q14457 1-450)”, in assay [1], the binding entry is “binds”.
CAV1ΔSD-HA (from UniProt Q03135 1-178): the binding result with BECN1-flag, full length was “no binding”.
Consider CAV1ΔIM-HA (from UniProt Q03135 1-178), for which the binding result in the assay with BECN1-flag, full length is “binds”.
ATG14-flag (from UniProt Q6ZNE5 1-492): in assay [2], the binding entry is given as “binds”.

(Values after article PMC5520747.)
